In article PMC4585773, “The C-terminus hot spot region helps in the fibril formation of bacteriophage-associated hyaluronate lyase (HylP2)” (Scientific Reports, 2015) one finds binding data, which are given here for two molecules.

Assay [1] addresses HylP2_(V147A) (Streptococcus pyogenes bacteriophage) (UniProt Q54699). Nature of the assay: thioflavin T fluorescence kinetics; pH 5, 5 uM protein, 10 uM ThT, emission at 480 nm against time, seeded with preformed HylP2 fibrils; step: the native enzyme to fibrils; both purified.
Assay [2] has the same target. Nature of the assay: ANS fluorescence kinetics; ANS fluorescence at 465 nm against time, seeded with preformed HylP2 fibrils; step: the native enzyme to fibrils; both purified.
The target is the same in assay [3]. Nature of the assay: thioflavin T fluorescence + Congo red absorbance; 5 uM protein dialysed at pH 5 (10 mM CGH buffer), 10 uM dye, 25 °C; step: the native enzyme to fibrils; no seeds; both purified.
Assay [4] has the same target. Nature of the assay: SEC; Superdex 200 HR 10/300, 25 °C, pH 5, 0.3 ml/min; step: the native enzyme to high molecular weight aggregates (void volume), compared with pH 7; no seeds; both purified.
The target in assay [5] is bacteriophage-associated hyaluronate lyase HylP (Streptococcus pyogenes bacteriophage) (UniProt P15316). Nature of the assay: thioflavin T fluorescence kinetics; pH 5, 5 uM protein, 10 uM ThT, emission at 480 nm against time, seeded with preformed HylP2 fibrils; step: the native enzyme to fibrils; both purified.
Assay [6] has the same target. Nature of the assay: SEC; Superdex 200 HR 10/300, 25 °C, pH 5, 0.3 ml/min; step: the native enzyme to high molecular weight aggregates (void volume), compared with pH 7; no seeds; both purified.
The target is the same in assay [7]. Nature of the assay: ANS fluorescence kinetics; ANS fluorescence at 465 nm against time, seeded with preformed HylP2 fibrils; step: the native enzyme to fibrils; both purified.
Assay [8] shares this target. Nature of the assay: thioflavin T fluorescence + Congo red absorbance; 5 uM protein dialysed at pH 5 (10 mM CGH buffer), 10 uM dye, 25 °C; step: the native enzyme to fibrils; no seeds; both purified.

These are yes or no findings as the source states them, for the method shown.

With “HylP2_(V147A) (from UniProt Q54699 1-337) (enzyme)”, the binding result in assay [1] is given as “no binding (tested: 5 uM)”; in assay [2], “no binding”; in assay [3] it was “no binding (tested: 5 uM)”; in assay [4], “no binding”.

B1: bacteriophage-associated hyaluronate lyase HylP (enzyme, UniProt P15316 1-371)
chain: MTENIPLRVQFKRMSADEWARSDVILLEGEIGFETDTGFAKFGDGQNTFSKLKYLTGPKGPKGDTGLQGKTGGTGPRGPAGKPGTTDYDQLQNKPDLGAFAQKEETNSKITKLESSKADKSAVYSKAESKIELDKKLSLTGGIVTGQLQFKPNKSGIKPSSSVGGAINIDMSKSEGAAMVMYTNKDTTDGPLMILRSDKDTFDQSAQFVDYSGKTNAVNIVMRQPSAPNFSSALNITSANEGGSAMQIRGVEKALGTLKITHENPNVEAKYDENAAALSIDIVKKQKGGKGTAAQGIYINSTSGTAGKMLRIRNKNEDKFYVGPDGGFHSGANSTVAGNLTVKDPTSGKHAATKDYVDEKIAELKKLILKK
Regarding B1, the binding result in assay [5] is “no binding (tested: 5 uM)”; in assay [6] it was “no binding”; in assay [7] it was “no binding”; in assay [8], “no binding (tested: 5 uM)”.
